Assay results taken from patent US20080131908A1 (Genentech, published 2008).
Results are given in words; binding and its absence hold for the method and conditions named. Some results given as binding are weak or reduced against the parent protein; the word gives no strength.

The chains behind the UniProt entries cited, without tags or fusion partners. Where a name states a change or a piece, a line headed by the entry shows the natural chain unless it says otherwise.
UniProt Q9UM47: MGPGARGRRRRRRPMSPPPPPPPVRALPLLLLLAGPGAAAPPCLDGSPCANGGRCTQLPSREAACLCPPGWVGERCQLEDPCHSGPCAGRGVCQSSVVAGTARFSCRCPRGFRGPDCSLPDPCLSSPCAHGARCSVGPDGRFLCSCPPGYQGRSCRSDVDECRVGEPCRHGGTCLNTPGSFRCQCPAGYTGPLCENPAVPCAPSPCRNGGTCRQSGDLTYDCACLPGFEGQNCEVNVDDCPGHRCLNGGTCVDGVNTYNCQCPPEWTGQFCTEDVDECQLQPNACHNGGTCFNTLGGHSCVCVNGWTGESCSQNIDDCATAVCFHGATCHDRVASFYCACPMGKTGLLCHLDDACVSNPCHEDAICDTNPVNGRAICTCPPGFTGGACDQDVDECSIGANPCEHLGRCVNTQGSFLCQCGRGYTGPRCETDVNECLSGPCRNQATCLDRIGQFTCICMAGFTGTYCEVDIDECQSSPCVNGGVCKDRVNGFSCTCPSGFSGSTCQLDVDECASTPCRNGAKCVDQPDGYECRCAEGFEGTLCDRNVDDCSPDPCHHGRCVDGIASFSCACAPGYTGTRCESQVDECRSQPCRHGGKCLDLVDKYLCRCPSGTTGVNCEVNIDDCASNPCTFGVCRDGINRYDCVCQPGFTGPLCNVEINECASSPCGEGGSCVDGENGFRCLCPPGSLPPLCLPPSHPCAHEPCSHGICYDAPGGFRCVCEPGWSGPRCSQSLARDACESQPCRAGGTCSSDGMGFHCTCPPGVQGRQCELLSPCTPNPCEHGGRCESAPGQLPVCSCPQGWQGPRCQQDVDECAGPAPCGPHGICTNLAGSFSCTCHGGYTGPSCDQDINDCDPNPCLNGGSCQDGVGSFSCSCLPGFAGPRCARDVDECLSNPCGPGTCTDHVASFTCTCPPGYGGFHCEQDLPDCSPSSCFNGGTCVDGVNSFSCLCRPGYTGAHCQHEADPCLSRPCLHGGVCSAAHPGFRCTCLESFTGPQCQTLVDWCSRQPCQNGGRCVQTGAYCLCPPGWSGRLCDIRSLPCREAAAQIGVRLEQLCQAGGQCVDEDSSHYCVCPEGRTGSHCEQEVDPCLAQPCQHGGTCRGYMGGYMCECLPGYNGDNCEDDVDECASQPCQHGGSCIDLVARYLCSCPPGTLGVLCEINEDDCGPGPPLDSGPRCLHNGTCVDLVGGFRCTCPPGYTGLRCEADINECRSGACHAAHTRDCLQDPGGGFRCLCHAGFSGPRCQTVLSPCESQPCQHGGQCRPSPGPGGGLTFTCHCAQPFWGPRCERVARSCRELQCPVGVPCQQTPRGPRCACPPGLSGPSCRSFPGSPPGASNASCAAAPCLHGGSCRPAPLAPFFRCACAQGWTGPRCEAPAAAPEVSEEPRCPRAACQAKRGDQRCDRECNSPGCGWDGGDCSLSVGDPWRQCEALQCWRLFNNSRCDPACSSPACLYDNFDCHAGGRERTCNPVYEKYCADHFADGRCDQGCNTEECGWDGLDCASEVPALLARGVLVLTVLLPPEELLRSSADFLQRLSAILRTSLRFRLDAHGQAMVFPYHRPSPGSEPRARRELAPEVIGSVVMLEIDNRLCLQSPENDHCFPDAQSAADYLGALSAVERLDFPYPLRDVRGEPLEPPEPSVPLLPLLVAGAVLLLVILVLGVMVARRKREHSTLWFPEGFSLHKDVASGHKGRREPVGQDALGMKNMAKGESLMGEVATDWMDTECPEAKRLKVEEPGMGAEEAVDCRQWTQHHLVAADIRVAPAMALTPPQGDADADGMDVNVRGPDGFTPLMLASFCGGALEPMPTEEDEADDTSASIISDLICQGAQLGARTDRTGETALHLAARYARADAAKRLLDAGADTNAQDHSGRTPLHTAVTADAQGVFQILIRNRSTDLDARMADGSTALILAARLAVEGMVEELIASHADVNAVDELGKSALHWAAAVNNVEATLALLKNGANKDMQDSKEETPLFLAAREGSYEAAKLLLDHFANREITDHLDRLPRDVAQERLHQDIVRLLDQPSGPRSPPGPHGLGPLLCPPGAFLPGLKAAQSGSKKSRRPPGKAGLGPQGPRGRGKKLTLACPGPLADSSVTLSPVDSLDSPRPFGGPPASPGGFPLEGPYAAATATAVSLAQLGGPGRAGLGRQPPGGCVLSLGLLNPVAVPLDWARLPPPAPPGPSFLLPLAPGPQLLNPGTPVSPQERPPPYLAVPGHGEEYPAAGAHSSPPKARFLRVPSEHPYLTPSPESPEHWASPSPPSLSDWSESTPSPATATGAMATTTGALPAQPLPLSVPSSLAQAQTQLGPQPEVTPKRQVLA

Key:
[1] = molecular target: human Notch3 (full-length) (human) (UniProt Q9UM47); test: cell-based FMAT assay on cells expressing full-length Notch3
[2] = molecular target: human Notch3 (full-length) (human) (UniProt Q9UM47); test: summary of FMAT and Western blot on domain constructs
[3] = molecular target: Notch3-EGF/Fc fusion protein (human) (UniProt Q9UM47); test: ELISA, hybridoma supernatant on coated fusion protein
[4] = molecular target: human Notch3 (full-length) (human) (UniProt Q9UM47); test: cell-based FMAT assay and FACS analysis
[5] = molecular target: human Notch3 (full-length) (human) (UniProt Q9UM47); test: Western blot, denaturing conditions
[6] = molecular target: Notch3-EGF/Fc fusion protein (human) (UniProt Q9UM47); test: Western blot band intensity, denaturing conditions
[7] = molecular target: human Notch3 (full-length) (human) (UniProt Q9UM47); test: Western blot band intensity, denaturing conditions, full-length Notch3 from transfected cells

Measured: binding

B1: anti-Notch 3 monoclonal antibody mAb 255A-77 (antibody, V domains shown)
VH: QVQLQQSGDDLVKPGASVKLSCKASGYTFTSYWINWIKQRPGQGLEWIGHIGPGSGSTYYNEIFKGKATLTVDTSSSTAYIQLSSLSSEDSAVYFCVLTRYFYAMDYWGQGTSVTVSS
VL: DIVMTQSPSSLAVTAGEKVTMRCKSSQSLLWSVNQNNYLSWYQQKQGQPPKLLIYGASIRESWVPDRFTGSGSGTDFTLTISNVHVEDLAVYYCQHNHGSFLPLTFGAGTKLELKR
notes: Mouse hybridoma mAb raised against Notch3-EGF/Fc
binds: [1] | [2] | [3] | [4]

B2: anti-Notch 3 monoclonal antibody mAb 255A-71 (antibody, V domains shown)
VH: DVQLQESGPGLVKPSQSLSLTCSVTGYSITSGYYWNWIRQFPGNKLEWMGFISYDGSNNYNPSLKNRISITRDTSKNQFFLKLNSVTTEDTATFYCATLYYDYDGNYFDYWGQGTTLTVSS
VL: CDIQMTQTTSSLSASLGDRVTISCRTSQDISNYLNWYQQKPDGTVKLLIYYTSRLHSGVPSRFSGSGSGTDYSLTISNLEQEDIATYFCQQGNALPLTFGPGTKLELKR
notes: as for B1
binds: all assays above
